Measured data: PubChem BioAssay AID1224830 (NIAID, 2016)
The whole screen tested about 18,000 reagents; below is an unselected part. About 2,900 of them (16%) count as active. 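Calls are made per well; low scores hint the gene aids the LPS response, high scores that it dampens it.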 A number with no mark means an inactive call. Repeated entries: four replicate wells of each siRNA pool.

- Purpose: 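Regulators of TLR4 signalling towards TNF-alpha in macrophage-like cells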 (primary screen)
- Cell system: human THP-1 monocytic leukaemia cells, TNF dual-luciferase reporter clone, PMA-differentiated to macrophage-like cells
- Reagents: siRNA pool against human genes, 50 nM
- Time to read-out: LPS for 4 h, given about 3 days after siRNA transfection
- Conditions: bacterial LPS (TLR4 ligand), 10 ng/ml
- Read-out: 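TNF firefly reporter luminescence divided by renilla, normalised to the plate median, then turned into a robust z-score for each replicate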
- Direction: TNF reporter robust z-score: higher = stronger TNF reporter response to LPS
- Rule for the call: 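Each well counts as active if its z-score is over 2.8 or under -1.5; controls are left without a call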

no.	gene symbol	TNF reporter robust z-score
1	RABEPK	-0.17
2	RABEPK	1.07
3	RABEPK	1.13
4	RABEPK	2.01
5	KCNMA1	-0.09
6	KCNMA1	0.22
7	KCNMA1	-0.11
8	KCNMA1	0.21
9	STK38	1.23
10	STK38	0.33
11	STK38	0.62
12	STK38	0.79
13	COL17A1	-1.43
14	COL17A1	-1.14
15	COL17A1	-1.37
16	COL17A1	-1.64 (active)
17	TSPEAR	0.51
18	TSPEAR	1.35
19	TSPEAR	1.08
20	TSPEAR	1.07
21	ETFB	-0.29
22	ETFB	-0.66
23	ETFB	-0.76
24	ETFB	-1.53 (active)
25	PARP15	-0.47
26	PARP15	-1.7 (active)
27	PARP15	-0.25
28	PARP15	0.31
29	SPINK14	1.4
30	SPINK14	1.14
31	SPINK14	0.55
32	SPINK14	1.16
33	PIP5K1B	0.61
34	PIP5K1B	-0.79
35	PIP5K1B	-0.37
36	PIP5K1B	-0.32
37	SLC4A5	0.48
38	SLC4A5	-0.41
39	SLC4A5	0.98
40	SLC4A5	0.02
41	LGALS4	-0.49
42	LGALS4	0.52
43	LGALS4	-0.33
44	LGALS4	0.07
45	PRRC1	0.3
46	PRRC1	1.7
47	PRRC1	-0.1
48	PRRC1	1.63

Sorted by “TNF reporter robust z-score” (low to high): some entries from above
gene symbol	TNF reporter robust z-score
COL17A1	-1.64 (active)
COL17A1	-1.43
COL17A1	-1.37
COL17A1	-1.14
KCNMA1	-0.11
KCNMA1	0.21
STK38	0.33
TSPEAR	0.51
STK38	0.62
STK38	0.79
STK38	1.23

More entries:
no.	gene symbol	TNF reporter robust z-score
49	SLC67A1	-1.19
50	SLC67A1	-0.55
51	SLC67A1	-1.23
52	SLC67A1	-0.94
53	DMRT1	-0.8
54	DMRT1	-0.07
55	DMRT1	-0.24
56	DMRT1	0.51
57	BLOC1S1	-1.77 (active)
58	BLOC1S1	-0.3
59	BLOC1S1	-0.42
60	BLOC1S1	-1.11
61	TAS2R7	-1.42
62	TAS2R7	-1.06
63	TAS2R7	-1.51 (active)
64	TAS2R7	-1.4
65	GJA4	-0.51
66	GJA4	0.86
67	GJA4	-0.15
68	GJA4	0.39
69	CASQ2	0.73
70	CASQ2	-0.12
71	CASQ2	0.59
72	CASQ2	-0.16
73	PCDHB3	1.28
74	PCDHB3	-0.51
75	PCDHB3	0.51
76	PCDHB3	0.28
77	ABHD14B	1.01
78	ABHD14B	-0.04
79	ABHD14B	-0.47
80	ABHD14B	-0.37
81	NBPF14	-1.03
82	NBPF14	-0.68
83	NBPF14	-0.64
84	NBPF14	-0.59
85	TBATA	-0.79
86	TBATA	-1.05
87	TBATA	0.11
88	TBATA	0.23
89	MTPAP	0.14
90	MTPAP	1.05
91	MTPAP	0
92	MTPAP	1.13
93	MRFAP1L1	0.25
94	MRFAP1L1	-0.08
95	MRFAP1L1	0.34
96	MRFAP1L1	-0.06
97	CYP51A1	-0.06
98	CYP51A1	0.17
99	CYP51A1	0.15
100	CYP51A1	0.27
101	NUDT16L1	-0.88
102	NUDT16L1	2.34
103	NUDT16L1	-0.39
104	NUDT16L1	-0.16
105	ARMC8	1.04
106	ARMC8	1.29
107	ARMC8	0.37
108	ARMC8	0
109	RPL41	0.81
110	RPL41	0.71
111	RPL41	0.31
112	RPL41	1.48
